This note sets out measurements from PubChem BioAssay AID1487 (National Center for Advancing Translational Sciences (NCATS), 2009).

Broadly, the AC50 is the concentration at which the activity in the assay is half-maximal.

The list shows a part of the results. The main result of the screen is listed elsewhere. These columns were measured beside it and carry no call. Compounds called inactive in the main read-out are mostly missing here. Words in brackets tell the shape of the fitted curve; partial curves, single points and poor fits give uncertain potencies.

This test can be described thus: qHTS Assay for Modulators of Lamin A Splicing. The settings on record: HeLa LMNA splicing GFP/RFP minigene ratio, 48 h. In a few lines:
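Read-out is the ratio of GFP to DsRed2 object intensity, acquired by 488 nm laser-scanning cytometry on HeLa lamin A-EGFP minigene reporter cells. Compound incubation 48 hrs at 37 °C in Opti-MEM with 2% FBS; DMSO 0.5% final.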

Setting [1] is: measured here: GFP splicing reporter channel.
The mark [2] stands for this setting: measured here: RFP viability control channel.

Regarding `CCN(CC)c1nc(Oc2ccc(=O)[nH]n2)nc(N2CCOCC2)n1`, the AC50 under setting [1] is 10 µM [rising, partial curve, poor fit].
On to `Cn1c(N/N=C\c2cccc(O)c2)cc(=O)n(C)c1=O`, for which the AC50 under setting [1] was 12.6 µM [falling, partial curve, poor fit].
As to `CCOC(=O)N1CCC(NC(=O)c2ccc(OC)c(CN3CC(=O)N4CCCC4C3=O)c2)CC1` (centres undefined), the AC50 under setting [2] is 3.55 µM [rising, single point].
`O=C(NNC(=O)C1COc2ccccc2O1)c1cccc([N+](=O)[O-])c1` (centres undefined): the AC50 under setting [1] is 35.5 µM [rising, partial curve, poor fit].
On to `Cc1noc(NC(=O)c2cccc(C(F)(F)F)c2)c1Cl`, for which the AC50 reads like this: under setting [1], 0.141 µM [falling, full curve, poor fit]; under setting [2], 0.178 µM [falling, full curve, poor fit].
In the case of `CN(C)c1ccc(C(CNC(=O)c2ccccc2)N2CCc3ccccc32)cc1` (centres undefined), the AC50 under setting [1] is 35.5 µM [falling, single point].
In the case of `Cc1cc(=O)oc(C)c1C(=O)OC(C(=O)c1ccccc1)c1ccccc1` (centres undefined), the AC50 runs as follows: under setting [1], 17.8 µM [rising, single point]; under setting [2], 25.1 µM [rising, single point].
As to `COc1cccc(Cn2cnc3c(NS(=O)(=O)c4cc(Cl)ccc4Cl)c(C)c(C)cc32)c1`, the AC50 under setting [2] is 12.6 µM [rising, single point].
With `O=C(Cn1c(SCC(=O)Nc2ccc(F)cc2)nc2ccccc21)NCc1ccc(F)cc1`, the AC50 under setting [2] was 14.1 µM [falling, single point].
The same measure, in the same setting: with `Cc1cc(Nc2ccccc2)nc(NCc2ccccc2)n1` the figure was 11.2 µM [rising, partial curve].
On to `CC(NC(=O)CCl)c1ccc(Cl)c(Cl)c1` (centres undefined), for which, under setting [2], the AC50 was 3.55 µM [falling, partial curve, poor fit].
In the case of `O=c1c2cc(NC(=S)NCc3cccnc3)ccc2nc2n1CCCCC2`, the AC50 under setting [1] is 4.47 µM [falling, partial curve, poor fit] and the AC50 under setting [2] is 0.398 µM [falling, full curve, poor fit].
In the case of `O=C(N/N=C/c1ccccn1)c1ccc(N/N=C/c2ccccn2)cc1`, the AC50 under setting [2] is 10 µM [rising, partial curve].
Same read-out and setting: with `O=c1c([N+](=O)[O-])c(N2CCCC2)c2ccccc2n1-c1ccccc1` the figure was 31.6 µM [falling, partial curve]; with `Cc1ccc(Cl)cc1NC(=O)c1cnc(N2CCCCC2)c2ccccc12`, 10 µM [falling, partial curve, poor fit].
As for `CCCC(=O)NCC1(N(C)C)CCCCC1`, the AC50 under setting [2] is 0.00447 µM [falling, full curve, poor fit].
